# Results: article PMC9023492
# Amino acid sequences for entries named in this document (tags omitted). A change or cut given only in a name is not applied to a line headed by its entry. Chains listed by the source or under a name are the forms on record and can include a tag or linker.
# UniProt P01106: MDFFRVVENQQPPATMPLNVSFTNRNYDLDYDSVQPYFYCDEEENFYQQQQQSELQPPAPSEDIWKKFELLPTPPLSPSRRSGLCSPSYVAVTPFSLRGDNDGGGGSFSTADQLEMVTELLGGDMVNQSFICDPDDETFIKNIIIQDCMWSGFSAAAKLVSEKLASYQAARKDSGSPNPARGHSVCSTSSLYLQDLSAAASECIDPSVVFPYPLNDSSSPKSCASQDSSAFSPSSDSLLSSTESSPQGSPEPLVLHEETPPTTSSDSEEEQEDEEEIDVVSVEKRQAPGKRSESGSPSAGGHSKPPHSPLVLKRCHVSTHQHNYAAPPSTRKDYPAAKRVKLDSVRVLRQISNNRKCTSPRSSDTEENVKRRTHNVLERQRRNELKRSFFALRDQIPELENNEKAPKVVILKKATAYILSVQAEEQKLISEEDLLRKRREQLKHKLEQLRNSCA
# UniProt Q92830: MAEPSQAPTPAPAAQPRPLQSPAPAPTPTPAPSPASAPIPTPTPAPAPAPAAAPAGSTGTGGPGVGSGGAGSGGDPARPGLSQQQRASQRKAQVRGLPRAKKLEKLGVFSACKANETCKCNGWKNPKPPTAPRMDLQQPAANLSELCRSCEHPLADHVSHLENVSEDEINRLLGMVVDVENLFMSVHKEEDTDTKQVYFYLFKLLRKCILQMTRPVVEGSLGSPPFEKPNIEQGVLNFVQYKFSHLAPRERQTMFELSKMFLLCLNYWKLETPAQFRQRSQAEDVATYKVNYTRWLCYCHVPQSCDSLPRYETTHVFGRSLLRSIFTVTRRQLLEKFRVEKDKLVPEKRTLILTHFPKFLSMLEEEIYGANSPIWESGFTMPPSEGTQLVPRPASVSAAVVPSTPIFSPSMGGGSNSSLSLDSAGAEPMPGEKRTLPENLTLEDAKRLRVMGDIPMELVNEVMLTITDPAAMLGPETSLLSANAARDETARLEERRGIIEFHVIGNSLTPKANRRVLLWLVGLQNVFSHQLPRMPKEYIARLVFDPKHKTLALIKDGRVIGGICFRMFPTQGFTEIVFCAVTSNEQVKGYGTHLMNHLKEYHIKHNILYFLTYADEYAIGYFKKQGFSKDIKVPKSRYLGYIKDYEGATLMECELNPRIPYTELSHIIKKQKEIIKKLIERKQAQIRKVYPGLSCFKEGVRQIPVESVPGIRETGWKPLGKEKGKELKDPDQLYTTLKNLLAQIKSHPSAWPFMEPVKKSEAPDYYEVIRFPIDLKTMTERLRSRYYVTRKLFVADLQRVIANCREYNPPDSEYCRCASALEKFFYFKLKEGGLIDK
# endogenous KMT5A (Q9NQR1-2, form named): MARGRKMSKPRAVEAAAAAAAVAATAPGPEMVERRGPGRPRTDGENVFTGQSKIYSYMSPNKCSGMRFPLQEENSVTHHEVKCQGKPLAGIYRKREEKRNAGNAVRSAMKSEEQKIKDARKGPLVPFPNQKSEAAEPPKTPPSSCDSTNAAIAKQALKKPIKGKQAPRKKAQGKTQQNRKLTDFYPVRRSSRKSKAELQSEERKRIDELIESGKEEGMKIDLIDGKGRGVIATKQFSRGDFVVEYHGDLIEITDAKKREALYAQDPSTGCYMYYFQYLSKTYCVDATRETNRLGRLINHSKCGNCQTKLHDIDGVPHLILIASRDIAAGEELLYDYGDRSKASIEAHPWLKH
# T1: Flag-SNIP1 (Smad nuclear-interacting protein 1) (UniProt Q8TAD8)
# T1 sequence: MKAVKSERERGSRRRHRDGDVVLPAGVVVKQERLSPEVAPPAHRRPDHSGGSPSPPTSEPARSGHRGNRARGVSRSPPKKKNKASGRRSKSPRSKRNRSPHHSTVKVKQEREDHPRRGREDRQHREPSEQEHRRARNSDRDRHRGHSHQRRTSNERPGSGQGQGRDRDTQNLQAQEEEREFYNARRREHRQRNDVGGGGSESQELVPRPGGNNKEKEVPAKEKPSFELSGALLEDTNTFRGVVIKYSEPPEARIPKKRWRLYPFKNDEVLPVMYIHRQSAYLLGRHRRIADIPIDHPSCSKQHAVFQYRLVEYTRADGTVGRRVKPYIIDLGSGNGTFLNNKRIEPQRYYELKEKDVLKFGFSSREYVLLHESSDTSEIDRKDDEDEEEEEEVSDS
# B1: endogenous SNIP1 (protein, UniProt Q8TAD8 1-396)
# chain: T1 sequence
# Legend:
# Experiment in all cases: affinity purification with mass spectrometry; anti-FLAG immunoprecipitation from lysates of MDA-MB-231 cells with FLAG-tagged SNIP1, c-MYC or Flag-GFP control; glycine elution, SDS-PAGE, silver stain, bands cut for LC-MS/MS
# [1] = molecular target: FLAG-tagged c-MYC (in MDA-MB-231 cells) (UniProt P01106)
# [2] = molecular target: T1, Flag-SNIP1 (Smad nuclear-interacting protein 1)
# [3] = molecular target: FLAG-tagged c-MYC (in MDA-MB-231 cells) (UniProt P01106); remark: listed apart in the source
molecule,measurement,setting,value
endogenous KAT2A (from UniProt Q92830 1-837) (enzyme),binding,[1],binds
endogenous KMT5A (from UniProt Q9NQR1-2 1-352) (enzyme),binding,[2],binds
B1,binding,[3],binds

# Read-outs that look alike come from different tables or passages of the source. These are yes or no findings as the source states them, for the method shown. In cells and extracts the contact can be indirect. These calls come from enrichment with a bait or labelling near it, and not all partners need be listed. For part of these data: Where a sequence is shown, tags or fusion partners need not be part of it.
